# Results from PubChem BioAssay AID1487 (National Center for Advancing Translational Sciences (NCATS), 2009).
# The other results are listed elsewhere or left out. These are further read-outs of the screen, such as a control signal, another cell line or another target. No call is given for them. Compounds called inactive in the main read-out are mostly missing here. Words in brackets tell the shape of the fitted curve; partial curves, single points and poor fits give uncertain potencies.
# Assay: qHTS Assay for Modulators of Lamin A Splicing
# Conditions: HeLa LMNA splicing GFP/RFP minigene ratio, 48 h
# How it was run: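 Read-out is the ratio of GFP to DsRed2 object intensity, acquired by 488 nm laser-scanning cytometry on HeLa lamin A-EGFP minigene reporter cells. Compound incubation 48 hrs at 37 °C in Opti-MEM with 2% FBS; DMSO 0.5% final.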
# [1] = measured here: GFP splicing reporter channel
# [2] = measured here: RFP viability control channel
Structure (SMILES),AC50 [1],AC50 [2]
COc1ccc(N2CCN(c3ncnc4c3[nH]c3ccccc34)CC2)cc1,"6.31 µM [rising, partial curve]","3.16 µM [rising, full curve]"
CCOC(=O)N1CCN(C(=O)c2cc(-c3ccc(OCC)cc3)nc3ccccc23)CC1,"35.5 µM [rising, single point]","12.6 µM [rising, partial curve]"
CC(C)CN1CCN(Cc2cccn2-c2ccccn2)CC1CCO (stereo not given),"35.5 µM [falling, partial curve, poor fit]",–
COc1ccc(CCNC(=O)c2ccc(C)s2)cc1OC,"4.47 µM [falling, partial curve, poor fit]","5.01 µM [falling, single point]"
Cc1cccc(CNS(=O)(=O)c2ccc(-c3cnc(C4CC4)o3)cc2)c1,"35.5 µM [falling, single point]",–
COc1ccc(C(CC(=O)c2ccc(C)cc2)C(C#N)C#N)cc1OC (stereo not given),"35.5 µM [falling, single point]","3.16 µM [falling, single point]"
Cc1cccc(C2C3=C(Nc4[nH]n(-c5ccccc5)c(=O)c42)c2ccccc2C3=O)c1 (stereo not given),"11.2 µM [rising, single point]","11.2 µM [rising, partial curve]"
Cc1nc2ccccc2n1CC(O)COC1CCCCC1 (stereo not given),"22.4 µM [rising, single point]","35.5 µM [rising, single point]"
COc1ccc(NS(=O)(=O)c2ccc(NC(=S)NC(=O)/C=C/c3ccccc3)cc2)nn1,–,"11.2 µM [rising, partial curve, poor fit]"
Cc1ccc2nc(SC(C)C(=O)Nc3cccc([N+](=O)[O-])c3)[nH]c2c1 (stereo not given),–,"31.6 µM [rising, single point]"
CCCCNC(=O)CSc1nc2ccccc2nc1Cc1ccc(C)cc1,"0.355 µM [rising, single point]",–
COc1ccc(-c2nnc(SCc3cc(=O)c4cc(C)cc(C)c4[nH]3)n2C)cc1,"0.708 µM [rising, single point]",–
COc1cnc(-c2ccccn2)nc1Oc1ccccc1,–,"0.794 µM [rising, full curve, poor fit]"
Cc1ccc(CN2C(=O)/C(=C\c3ccc(C(=O)NCc4cccnc4)cc3)Oc3ccccc32)cc1,–,"7.94 µM [rising, partial curve, poor fit]"
CCOC(=O)c1c(-c2ccc(C)o2)csc1NC(=O)CSc1ncn[nH]1,"22.4 µM [rising, partial curve, poor fit]",–
Cc1nonc1OCCNc1ccc([N+](=O)[O-])cc1[N+](=O)[O-],"35.5 µM [falling, single point]",–
Cc1c(C(=O)NCc2cccnc2)oc2ccccc12,"10 µM [rising, partial curve, poor fit]",–
C/C(=N/OCC(=O)NCCCCCCNC(=O)CO/N=C(/C)c1cccs1)c1cccs1,"12.6 µM [rising, single point]","22.4 µM [rising, single point]"

Structure (SMILES),AC50 [1],AC50 [2]
COc1cccc(CNC(=O)c2ccc3nc(-c4ccc(F)cc4)c(-c4ccc(F)cc4)nc3c2)c1,"0.0316 µM [falling, full curve, poor fit]",–
O=C(Nc1cccc(S(=O)(=O)N2CCCCC2)c1)c1ccc2ccccc2n1,"14.1 µM [rising, single point]","25.1 µM [rising, single point]"
CN(C)C(=O)c1ccc(-c2ccc3ncnc(N(C)C)c3c2)cc1,–,"0.447 µM [falling, full curve, poor fit]"
Cc1nn2cc(-c3cccc(Cl)c3)cnc2c1Cl,"35.5 µM [rising, single point]","31.6 µM [rising, single point]"
O=C(NNC(=S)NC1CCCCC1)c1ccccc1O,–,"2.82 µM [rising, full curve]"
O=C1CC(=C(c2ccccc2)c2ccccc2)C(=O)N1CCCCN1CCN(c2cccc(Cl)c2)CC1,"12.6 µM [rising, single point]","22.4 µM [rising, single point]"
CNC(=S)NNc1nncc2ccccc12,–,"20 µM [falling, single point]"
CC1CC(O)(Cc2ccccc2)C(C)CN1C (stereo not given),"3.55 µM [falling, full curve, poor fit]","4.47 µM [falling, single point]"
Cc1ccc(S(=O)(=O)N2CCN(CC(=O)Nc3ccc([N+](=O)[O-])cc3)CC2)cc1C,–,"15.8 µM [rising, single point]"
CCOC(=O)c1c(C)[nH]c(C(=O)N/N=C/c2cccc(OC)c2)c1C,–,"25.1 µM [rising, partial curve]"
C=CCn1c(SCc2c(C)noc2C)nc2sc3c(c2c1=O)CCCCC3,–,"35.5 µM [rising, single point]"
O=C(c1ccccc1)C(CCC(CN1CCOCC1)C(=O)c1ccccc1)CN1CCOCC1 (stereo not given),"31.6 µM [rising, single point]",–
CCCCOc1ccc(C(=O)N/C(=C/C=C/c2ccccc2)C(=O)NC)cc1,–,"35.5 µM [rising, single point]"
CCn1c(-c2cc(Br)cc(OC)c2O)nc2cc(S(=O)(=O)N(C)C)ccc21,"17.8 µM [rising, single point]","15.8 µM [rising, partial curve]"
Cc1ccc(S(=O)(=O)N2CCCCC2)cc1NC(=O)CCOc1ccccc1,–,"31.6 µM [rising, single point]"
COc1ccc(CC(=O)N2N=C(C)CC2(O)c2cccnc2)cc1 (stereo not given),"3.16 µM [falling, full curve]","3.16 µM [falling, full curve]"
O=C(/C=C/c1ccc(F)cc1)Nc1nc2ccccc2[nH]1,"0.355 µM [rising, partial curve]",–
CC(=O)C1=C(c2ccc(C)cc2)N(C(C)=O)n2c(nnc2C2CCCCC2)S1,"5.62 µM [falling, partial curve, poor fit]","2.82 µM [falling, partial curve]"

# Some of these compounds in order of formula weight, high to low:
Structure (SMILES),AC50 [1],AC50 [2]
CCn1c(-c2cc(Br)cc(OC)c2O)nc2cc(S(=O)(=O)N(C)C)ccc21,"17.8 µM [rising, single point]","15.8 µM [rising, partial curve]"
CC(=O)C1=C(c2ccc(C)cc2)N(C(C)=O)n2c(nnc2C2CCCCC2)S1,"5.62 µM [falling, partial curve, poor fit]","2.82 µM [falling, partial curve]"
COc1ccc(CC(=O)N2N=C(C)CC2(O)c2cccnc2)cc1 (stereo not given),"3.16 µM [falling, full curve]","3.16 µM [falling, full curve]"
